In publication PMC6470148:

Target: T1, HA-tagged TRAF6 (UniProt P70196)
T1 sequence: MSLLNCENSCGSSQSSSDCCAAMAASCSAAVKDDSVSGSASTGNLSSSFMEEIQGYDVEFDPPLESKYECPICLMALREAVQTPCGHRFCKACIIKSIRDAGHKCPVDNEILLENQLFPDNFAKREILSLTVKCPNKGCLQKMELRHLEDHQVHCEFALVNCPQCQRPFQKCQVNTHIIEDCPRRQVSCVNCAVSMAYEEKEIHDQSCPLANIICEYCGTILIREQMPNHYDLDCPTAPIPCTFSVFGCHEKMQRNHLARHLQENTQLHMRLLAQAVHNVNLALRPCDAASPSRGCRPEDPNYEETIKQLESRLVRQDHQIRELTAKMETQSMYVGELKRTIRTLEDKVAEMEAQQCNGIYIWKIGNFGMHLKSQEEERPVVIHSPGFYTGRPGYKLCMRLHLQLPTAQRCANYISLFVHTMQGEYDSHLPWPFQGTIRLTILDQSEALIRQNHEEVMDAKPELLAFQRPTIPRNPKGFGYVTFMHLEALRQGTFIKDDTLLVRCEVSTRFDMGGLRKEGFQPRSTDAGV
Assay: co-IP; HEK293T cells transfected with tagged constructs; lysates precipitated with anti-Flag or anti-HA antibody and protein A/G beads, western blot

binding: binds
Substance: Flag-tagged MVP α-helical domain (686–870) (domain or fragment)

No constants are given. Whether binding was seen depends on the method and setting. Binding seen in cells or lysates may run through a third protein. Binding can be weak; no strength is given. Where a sequence is shown, tags or fusion partners need not be part of it.
